These are yes or no findings as the source states them, for the method shown. In cells and extracts the contact can be indirect. Some entries that bind do so weakly or less than the wild type. Tags and fused reporters may be left off the sequences shown.
T1: RFP-U1-A (Arabidopsis thaliana) (UniProt Q39244)
T1 sequence: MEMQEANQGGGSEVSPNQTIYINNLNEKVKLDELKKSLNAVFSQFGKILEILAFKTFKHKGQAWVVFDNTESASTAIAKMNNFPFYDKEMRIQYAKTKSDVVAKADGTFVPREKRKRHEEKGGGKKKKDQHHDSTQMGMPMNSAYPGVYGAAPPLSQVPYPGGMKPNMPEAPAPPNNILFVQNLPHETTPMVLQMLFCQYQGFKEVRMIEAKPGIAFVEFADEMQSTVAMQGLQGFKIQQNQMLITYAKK

T2: GFP-U1-A (Arabidopsis thaliana) (UniProt Q39244)
T2 sequence: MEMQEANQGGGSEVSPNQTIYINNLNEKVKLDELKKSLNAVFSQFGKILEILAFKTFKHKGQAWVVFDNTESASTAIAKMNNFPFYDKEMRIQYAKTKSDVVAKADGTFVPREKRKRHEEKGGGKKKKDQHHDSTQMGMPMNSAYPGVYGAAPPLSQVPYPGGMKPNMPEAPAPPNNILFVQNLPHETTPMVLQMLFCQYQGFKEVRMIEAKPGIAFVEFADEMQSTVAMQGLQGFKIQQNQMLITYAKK


How the values were obtained:
[1] = biological target: T1, RFP-U1-A (Arabidopsis thaliana); assay: co-IP; proteins transiently co-expressed in N. benthamiana; RFP-trap beads (Chromotek), 1 h at 4 °C; lysis buffer 50 mM Tris-HCl pH 7.5, 150 mM NaCl, 10% glycerol, 0.5% Triton X-100, 0.5% Nonidet P 40 Substitute; blots with RFP-, HA- and G/YFP-specific antibodies
[2] = biological target: T2, GFP-U1-A (Arabidopsis thaliana); assay: co-IP; proteins transiently co-expressed in N. benthamiana; immunoprecipitation with a GFP-affinity matrix; blots with GFP- and MYC-specific antibodies

Row | binding [1] | binding [2] | Binder
1 | binds |  | YFP-FY (protein, UniProt Q6NLV4 1-647) MYAGGDMHRGSQMPQPPMMRQSSASSTNINPDYHHPSGPFDPNVDSFGAKRMRKHTQRRAVDYTSTVVRYIQARTWQRDSRDRTTLQPTPAAAVDMLPTVAYSDNPSTSFAAKFVHASLNKNRCSINRVLWTPSGRRLITGSQSGEFTLWNGQSFNFEMILQAHDQPIRSMVWSHNENYMVSGDDGGTLKYWQNNMNNVKANKTAHKESIRDLSFCKTDLKFCSCSDDTTVKVWDFTKCVDESSLTGHGWDVKSVDWHPTKSLLVSGGKDQLVKLWDTRSGRELCSLHGHKNIVLSVKWNQNGNWLLTASKDQIIKLYDIRTMKELQSFRGHTKDVTSLAWHPCHEEYFVSGSSDGSICHWIVGHENPQIEIPNAHDNSVWDLAWHPIGYLLCSGSNDHTTKFWCRNRPADNPRDVLMQNQGYNEQGFGRQPDNFQPSEASPIPGAFVPGLTRNEGTIPGIGIAMPFDASSQGDHKQPLPGSMALGAPPLPPGPHPSLLGSGQQQGYQQQQQHQGHPQQMLPMPNMPHHQLPPSSHMPLHPHHLPRPMQMPPHGHMPPPSMPMSHQMPGSMGMQGGMNPQMSQSHFMGAPSGVFQGQPNSGGPQMYPQGRGGFNRPQMIPGYNNPFQQQQQPPLPPGPPPNNNQQHQ
2 | binds |  | YFP-tagged RBP47B (protein, UniProt Q0WW84 1-435) MQTTNGSDSTLATSGATPPNQQTPPPPQQWQQQQQQQQQWMAAMQYPPAAAMMMMQQQQMLMYPHQYVPYNQGPYQQHHPQLHQYGSYQQHQHQQHKAIDRGSGDDVKTLWVGDLLHWMDETYLHSCFSHTGEVSSVKVIRNKLTSQSEGYGFVEFLSRAAAEEVLQNYSGSVMPNSDQPFRINWASFSTGEKRAVENGPDLSVFVGDLSPDVTDVLLHETFSDRYPSVKSAKVVIDSNTGRSKGYGFVRFGDENERSRALTEMNGAYCSNRQMRVGIATPKRAIANQQQHSSQAVILAGGHGSNGSMGYGSQSDGESTNATIFVGGIDPDVIDEDLRQPFSQFGEVVSVKIPVGKGCGFVQFADRKSAEDAIESLNGTVIGKNTVRLSWGRSPNKQWRGDSGQQWNGGYSRGHGYNNGGGYANHHDSNNYHGEN

The remaining lines, values behind:

Row | Binder | binding [1] | binding [2]
3 | HA-CPSF73-I (protein, UniProt Q9C952 1-693) MASSSTSLKRREQPISRDGDQLIVTPLGAGSEVGRSCVYMSFRGKNILFDCGIHPAYSGMAALPYFDEIDPSSIDVLLITHFHIDHAASLPYFLEKTTFNGRVFMTHATKAIYKLLLTDYVKVSKVSVEDMLFDEQDINKSMDKIEVIDFHQTVEVNGIKFWCYTAGHVLGAAMFMVDIAGVRILYTGDYSREEDRHLRAAELPQFSPDICIIESTSGVQLHQSRHIREKRFTDVIHSTVAQGGRVLIPAFALGRAQELLLILDEYWANHPDLHNIPIYYASPLAKKCMAVYQTYILSMNDRIRNQFANSNPFVFKHISPLNSIDDFNDVGPSVVMATPGGLQSGLSRQLFDSWCSDKKNACIIPGYMVEGTLAKTIINEPKEVTLMNGLTAPLNMQVHYISFSAHADYAQTSTFLKELMPPNIILVHGEANEMMRLKQKLLTEFPDGNTKIMTPKNCESVEMYFNSEKLAKTIGRLAEKTPDVGDTVSGILVKKGFTYQIMAPDELHVFSQLSTATVTQRITIPFVGAFGVIKHRLEKIFESVEFSTDEESGLPALKVHERVTVKQESEKHISLQWSSDPISDMVSDSIVALILNISREVPKIVMEEEDAVKSEEENGKKVEKVIYALLVSLFGDVKLGENGKLVIRVDGNVAQLDKESGEVESEHSGLKERVRVAFERIQSAVKPIPLSAS | binds | 
4 | MYC-tagged CBP20 (protein, UniProt Q9XFD1 1-257) MASLFKEQAKLSAYRDRRFSGTQEEFDEALRASTTVYIGNVSFYTTEEQLYELFSRAGEIKKIIMGLDKNTKTPCGFCFVLFYSREDTEDAVKYISGTILDDRPIRVDFDWGFQEGRQWGRGRSGGQVRDEYRTDYDPARGGYGKLVQKELEAQRQLVDYGTGSLGAYPQAAPTNYGNGRRGGGNYGQGGQNRHGRGDYHRKRQRDDDRYGRDNSRRNTDHESRRDTDSDMRPEKNPRFRESGDSDDDGEDDRKRRS |  | binds
